# According to PubChem BioAssay AID540276 (National Center for Advancing Translational Sciences (NCATS), 2011):
# Where “and” joins values, the source holds several entries; their conditions need not be identical. Identical values can stand only once. The campaign covered roughly 300,000 compounds. About 5,400 (1.8%) were called active. Inconclusive results, whose numbers are uncertain, are shown with a selection of clear calls. The call rests on the fitted dose curve; tested in HEK293 cells. Where the call is inconclusive, the potency comes from a doubtful curve fit. Where a structure was tested more than once in an assay, its records may differ in their call.
# Assay: qHTS for inhibitors of binding or entry into cells for Marburg Virus
# Settings: Marburg virus pseudotyped entry inhibition, cell reporter; series mostly up to 37.8 µM
# Potency means the concentration at half of the fitted maximal effect.
row,SMILES,Potency
1,O=C(CCl)N(Cc1cccc([N+](=O)[O-])c1)c1cccc(Cl)c1,"inconclusive: 15.8 µM [inhibitor, single point]"
2,CCOC(=O)CC(=O)CSc1ncnc2c1oc1ccccc12,"inconclusive: 1.26 µM [activator, single point]"
3,CCOc1ccc(NC(=O)C2CCCN(c3nc(C)cc(C)n3)C2)cc1 (stereo not drawn),"inconclusive: 1.41 µM [inhibitor, partial curve, poor fit]"
4,CC(C)N(C)Cc1cn(C)nc1-c1ccc(Oc2ccccc2)cc1,"inconclusive: 35.5 µM [inhibitor, single point]"
5,CC(C)c1cc(C(=O)Nc2cccnc2)no1,"inconclusive: 16.4 µM [inhibitor, single point]"
6,O=C(Nc1ccc2nc(SCC(=O)N3CCCc4ccccc43)sc2c1)c1cccc(Cl)c1,"inconclusive: 8.91 µM [inhibitor, partial curve, poor fit]"
7,CCc1ccc(/C=N/NC(=O)c2cc(-c3ccncc3)nc3ccccc23)s1,"inconclusive: 7.94 µM [inhibitor, partial curve, poor fit]"
8,CN(C)CCn1c2c(c(SCC(=O)Nc3nccs3)nc1=O)CCCC2,inactive
9,CCCCNC(=O)CC1N=C2c3ccccc3N=C(SCC(=O)Nc3cccc(C)c3)N2C1=O (stereo not drawn),inactive
10,CCC1(CC)NC(=O)N(CC(=O)Nc2ccc(C)cc2C)C1=O,"inconclusive: 1.26 µM [activator, single point]"
11,Cc1ccc(Oc2ncccc2NC(=O)CC(CC(=O)O)c2ccccc2)c2c1CCC2 (stereo not drawn),"inconclusive: 14.1 µM [inhibitor, partial curve, poor fit]"
12,COc1ccc(C)cc1NC(=O)c1cnc2n(c1=O)CCS2,inactive
13,Cc1ccccc1NC(=O)CN1C(=O)S/C(=C\c2cccn2-c2cccc(C(=O)O)c2)C1=O,"inconclusive: 5.62 µM [activator, single point]"
14,CCc1c(C)nc(N)n2c(SCC(=O)Nc3ccccc3OC)nnc12,inactive
15,CCCN1C=CC(=CC=C(C#N)C#N)C=C1,inactive
16,Cc1cc(-n2cnc(-c3cn(C)nc3C)n2)no1,"inconclusive: 5.01 µM [activator, full curve]"
17,CC1CCc2cc(F)cc3c(O)c(C(=O)NCC4CCCO4)c(=O)n1c23 (stereo not drawn),inactive
18,COCCCn1c(=O)/c(=C\c2ccc(OC(F)F)c(OC)c2)s/c1=C(/C#N)C(=O)NCCOC,"inconclusive: 35.5 µM [activator, single point]"
19,O=C(N/N=C/C=C/c1ccccc1)c1ccncc1,inactive
20,COC(=O)c1cc(NS(=O)(=O)c2ccc(C)c3ccccc23)ccc1N1CCOCC1,"inconclusive: 7.08 µM [inhibitor, partial curve, poor fit]"
21,CCC(C)NC(=O)CCC(=O)Nc1ccc2nc(N3CC(C)CC(C)C3)cc(C)c2c1 (stereo not drawn),"inconclusive: 25.1 µM [inhibitor, single point]"
22,CCCOc1ccc(Nc2cc(C)nc(C)n2)cc1,inactive
23,COc1ccccc1/C=C/C(=O)OC(C)CN1CCCCC1 (stereo not drawn),inactive

row,SMILES,Potency
1,O=C(Cn1c(=O)n(-c2ccc(F)cc2)c(=O)c2sc3ccccc3c21)NC1CCCCC1,inactive
2,CCCCNc1ccc2c3c(cccc13)C(=O)N(CCCC)C2=O,"inconclusive: 5.62 µM [activator, single point]"
3,COc1ccc([C@H]2C[C@@H](O)[C@H](n3cc(COC(=O)c4ccccc4)nn3)CN2CC2CCCCC2)cc1,"inconclusive: 7.91 µM [inhibitor, full curve]"
4,CCOc1ccc(-c2cc(C(=O)OC)nc3c2c(=O)n(C)c(=O)n3C)cc1,inactive
5,COc1ccccc1NC(=O)C1=C(C)Nc2nc3ccccc3n2C1c1cccc(Br)c1 (stereo not drawn),"inconclusive: 2.51 µM [inhibitor, full curve, poor fit]"
6,COc1ccc(N2CCN(Cc3cc(=O)oc4ccc(OC)cc34)CC2)cc1,inactive
7,O=C(CCc1nc2ccccc2c(=O)[nH]1)OCCOc1ccc(Cl)cc1,"inconclusive: 1 µM [activator, partial curve, poor fit]"
8,Cc1nc(N)sc1-c1csc(Nc2ccccn2)n1,"inconclusive: 0.316 µM [activator, partial curve, poor fit]"
9,CCC(=O)N/C(N)=N/c1nc(C)c2cc(OC)ccc2n1,"inconclusive: 20.6 µM [inhibitor, single point]"
10,Cc1c(NC(=O)COC(=O)c2ccc(S(=O)(=O)N3CCOCC3)cc2)c(=O)n(-c2ccccc2)n1C,"inconclusive: 0.398 µM [inhibitor, full curve, poor fit]"
11,COc1cccc(-c2cc(C(=O)N3CCN(C(c4ccccc4)c4ccccc4)CC3)no2)c1,inactive
12,Cn1cnnc1SC1CCCCC1NS(=O)(=O)c1ccc(Cl)cc1 (stereo not drawn),"inconclusive: 2.59 µM [inhibitor, partial curve, poor fit]"
13,C=CCn1cnc2scc(-c3ccc(OC)cc3)c2c1=O,inactive
14,CC(=O)N1c2ccccc2C(=O)C1N1CCCCC1 (stereo not drawn),"inconclusive: 15.8 µM [inhibitor, single point]"
15,COC(=O)/C(=C\Nc1ccccc1N)c1ncc(C(F)(F)F)cc1Cl,"inconclusive: 0.316 µM [activator, partial curve, poor fit]"
16,CCCCOc1ccc(C(=O)Nc2ccncc2)cc1,"inconclusive: 7.94 µM [inhibitor, partial curve, poor fit]"
17,COc1ccc(-c2nc(N3CCCCCC3)sc2C(=O)c2ccccc2)cc1,"inconclusive: 6.31 µM [inhibitor, single point]"
18,O=C(c1cccc(Cl)c1)N(Cc1ccco1)Cc1ccccc1Cl,"inconclusive: 2.51 µM [inhibitor, full curve]"
19,COC(=O)CN(c1nc(C)c(Cl)c(OC)n1)S(=O)(=O)c1ccc(C)cc1,"inconclusive: 15.8 µM [inhibitor, single point]"
20,Cc1cc(C)c(NC(=O)NC(=O)c2ccc(F)cc2)c(C)n1,"inconclusive: 10 µM [inhibitor, partial curve, poor fit]"
21,Fc1ccc(-c2ccc(NCCN3CCOCC3)nn2)cc1,"inconclusive: 7.08 µM [activator, full curve, poor fit]"
22,Cc1ccc(CNS(=O)(=O)c2ccc(C(C)(C)C)cc2)n1C,"inconclusive: 0.231 µM [inhibitor, full curve, poor fit]"
23,CC(=O)c1cccc(NC(=O)Nc2cnn(Cc3ccc(Cl)cc3Cl)c2)c1,inactive

row,SMILES,Potency
1,COc1ccc(NC(=O)N2CCCC2C(=O)Nc2ccccc2F)cc1 (stereo not drawn),"inconclusive: 35.5 µM [inhibitor, single point]"
2,Cc1ccc(OCC(=O)O/N=C(\N)c2ccncc2)c(C)c1,inactive
3,COc1cccc(CC(=O)Nc2cc(S(=O)(=O)N3CCOCC3)ccc2N2CCOCC2)c1,inactive
4,COc1cccc(NC(=O)COC(=O)c2ccccc2C(=O)N2CCN(c3ccccc3)CC2)c1,"inconclusive: 5.62 µM [inhibitor, single point]"
5,COc1cc(C2C(C#N)=C(N)Oc3cc(O)ccc32)cc2c1OCO2 (stereo not drawn),"inconclusive: 35.5 µM [inhibitor, single point]"
6,N#Cc1c(N)nc(SCc2ccccc2)c(C#N)c1-c1ccco1,"inconclusive: 29.1 µM [inhibitor, single point]"
7,CN1CCN(CCCNC(=O)c2ccc(CSCc3cccc(Cl)c3)o2)CC1,"inconclusive: 35.5 µM [inhibitor, single point]"
9,COc1ccc(C2N(Cc3ccccc3)CCN2Cc2ccccc2)cc1[N+](=O)[O-],inactive
10,NNC(=O)c1ccc(COc2ccc(Br)cc2)o1,"inconclusive: 11.2 µM [inhibitor, partial curve, poor fit]"
11,COC(=O)C1(C(=O)OC)C[C@@H]2CON=C2[C@@H]1c1ccccc1,"inconclusive: 1.19 µM [activator, single point]"
12,Cc1c(C(=O)OCC(C)C)[nH]c2c1C(=O)CC(c1ccco1)C2 (stereo not drawn),"inconclusive: 0.461 µM [inhibitor, full curve]"
13,O=C(Nc1ccc2oc(-c3ccccc3)nc2c1)c1ccccc1F,inactive
14,CCCSc1ncc(Cl)c(C(=O)Nc2sc3c(c2C(=O)NCC)CCCC3)n1,"inconclusive: 2.82 µM [activator, single point]"
15,CC(C)c1nnc(NC(=O)c2nc(SCc3ccc(F)cc3)ncc2Cl)s1,inactive
16,Cc1ccc(-n2cc(C(=O)O)c(=O)cc2C)c(C)c1,"inconclusive: 0.891 µM [inhibitor, full curve, poor fit]"
17,NS(=O)(=O)c1ccc(CCNC(=O)c2ccncc2)cc1,"inconclusive: 5.62 µM [inhibitor, partial curve, poor fit]"
18,NC12CC3CC(CC(C3)C1)C2,"inactive and inconclusive: 1.3 µM [activator, full curve]"
19,Cc1cc(NC(=O)CSCC(=O)Nc2nc3ccccc3[nH]2)no1,"inconclusive: 5.62 µM [activator, single point]"
20,O=C(COC(=O)c1ccc(O)cc1O)Nc1cc(-c2ccccc2)nn1-c1ccccc1,"inconclusive: 35.5 µM [inhibitor, single point]"
21,COc1ccc(OC)c(NC(=O)c2cccc(Cn3cc(Br)c([N+](=O)[O-])n3)c2)c1,"inconclusive: 20.6 µM [inhibitor, single point]"
22,CN(CC(=O)Nc1ccc(F)cc1)C(=O)c1cccc(S(=O)(=O)N2CCN(c3ccc(F)cc3)CC2)c1,"inconclusive: 11.2 µM [inhibitor, partial curve, poor fit]"
